Measured values published in US9611314B2, “Functional peptide analogs of PEDF” (The Penn State Research Foundation, priority 2013, dated 2017).
Not every detail of the peptide structures is certain; ends, links or a residue may be inferred. Some entries repeat one wording, which the source may state once for all of them. Where no end group is shown, it is not given here.

Tests used:
human ARPE19 cells = test: Cell viability by ATP levels (CellTiter-Glo), serum starvation or H2O2; format: cell-based; settings: serum starvation and 300 uM H2O2, 25 nM peptide, 48 hr
Protocol: The analogs were tested for their efficacy in reducing levels of TNFα, IFNγ, VEGF-A and increasing cell viability in in vitro assays. Efficacy was compared to both non-treated oxidative stressed controls and the control standard P78.
(§1) Briefly, to test efficacy of the compounds in preventing cell death, experiments were performed to screen for the ability of each analog to: 1) increase cellular bioenergetic levels in an ATP assay and 2) reduce cell death in an LDH assay. To test the action of each analog on inflammatory processes, Luminex bead arrays were used to examine the ability of each analog to decrease production of inflammatory cytokines. To test for the potential of each analog to reduce vascular leakage, qPCR was used to examine the ability of each analog to increase mRNA levels of ZO1 and occludin, two junction proteins essential to vascular integrity. To test peptide stability in the vitreous, the analogs were incubated with dissected vitreous humor and the samples were analyzed at various time points using Maldi-TOF. These tests allowed for the systematic selection of analogs having the least toxicity and the strongest potential to reduce pathology in vivo.
The effects of the peptides to increase cell viability by increasing levels of ATP were tested in two models of cell death: (i) serum starvation; (ii) oxidative stress caused by hydrogen peroxide toxicity (300 uM). With respect to serum starvation, human ARPE19 cells were grown to ˜85% confluency in 10% serum containing medium after which the cells were placed in serum-free medium for 48 hr in the presence or absence (control) of 25 nM of each peptide. For ATP assay, CellTiter-Glo® reagents were used and luminescence was determined after 12 min spectrophotometrically (n=4) (FIG. 2A). With respect to oxidative stress, human ARPE19 cells were grown to ˜85% confluency in 10% serum containing medium. The cells were then treated with 300 uM H2O2 for 48 hours in the presence or absence (control) of 25 nM of each peptide. Levels of ATP were measured and % luminescence to controls and P78 was quantitated (n=4). Changes to ATP levels are plotted against control values and p values are given to P78 (FIG. 2B).

HUVEC = test: VEGF-mediated HUVEC tube formation on human dermal fibroblasts; format: cell-based; settings: 100 nM peptide, 4 ng/ml VEGF, 12 days; compared to VEGF
Protocol: Human dermal fibroblasts were cultured at 1×10^5/well in IncuCyte seeding medium (Essen Bioscience) in 96 wells plates for 1 hr. Medium was removed and replaced with complete IncuCyte growth medium (Essen Bioscience). Human umbilical vein endothelial cells (HUVEC) containing a green fluorescent marker (HUVEC CytoLight green) cells at 2000 cells/well were/well to attached dermal fibroblasts cultures and placed in the IncuCyte Zoom fluorescent and phase contrast multiplex imaging incubator (Essen BioScience). Twenty four hours later 4 ng/ml VEGF was added to all wells and 100 nM/ml PEDF peptides added to test wells. Cultures containing VEGF alone were used as positive controls and those containing 100 μM Suramin (VEGF inhibitor) used as negative controls. The cultures were placed at 37° C. in the Incucyte Zoom and HUVEC tube length networks measured over a 12 day incubation period using the Incucyte CellPlayer Angiogenesis software module and interface systems. Media was refreshed every 3-4 days.

ZO1 and occludin = test: qPCR of tight junction mRNA (potential to reduce vascular leakage); format: cell-based; settings: compared to P78 and SpxA1
Protocol: as §1
To test for the potential of each peptide (81-2, 81-5, 81-12, 81-13 and 81-20) to reduce vascular leakage, qPCR was used to examine the ability of each analog to increase mRNA levels of Z01, a junction protein essential to vascular integrity (FIG. 4A).

IL-6 = test: Vitreous IL-6 after 15 wks eye drops (Bioplex); format: in vivo, Ins2Akita mouse; settings: 5 μg eye drop 2×/wk for 15 wks, versus the other peptides

In the case of “SALSLGAAERTESIIHR [Peptide 81-13, SALSLGAAERTESIIHR]”, the “ATP viability tests: selection for in vivo studies” value (human ARPE19 cells) was “good candidates for the in vivo studies”, the “inhibition of HUVEC tube formation” value (HUVEC) was “prevented tube formation compared to VEGF but less effective” and the “ZO1 mRNA expression” value (ZO1 and occludin) was “higher expression of ZO1 compared to P78 and SpxA1”. The “effects in reducing IL-6 in vitreous” value (IL-6) was “slightly but significantly better effects in reducing IL-6”.
